Results on 17 molecules are retold here after patent publication US20220119513A1.

Sequences of proteins named here, by UniProt entry; tags and fusion partners are left off. A change or cut given only in a name is not applied to a line headed by its entry.
UniProt P01137: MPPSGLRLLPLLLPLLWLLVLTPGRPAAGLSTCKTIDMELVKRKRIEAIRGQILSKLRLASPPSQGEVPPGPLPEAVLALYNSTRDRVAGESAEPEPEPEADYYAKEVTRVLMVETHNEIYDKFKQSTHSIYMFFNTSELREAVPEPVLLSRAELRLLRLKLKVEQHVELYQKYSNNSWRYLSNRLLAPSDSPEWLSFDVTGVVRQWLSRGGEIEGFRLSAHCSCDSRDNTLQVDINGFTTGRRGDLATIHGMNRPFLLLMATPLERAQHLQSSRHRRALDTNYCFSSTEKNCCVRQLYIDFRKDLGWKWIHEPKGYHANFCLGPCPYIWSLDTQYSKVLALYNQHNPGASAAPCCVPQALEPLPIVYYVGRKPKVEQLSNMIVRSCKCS

One assay has as its target canine TGFβ3 (canine). The assay can be described thus: SPR, TGFβ on chip. (SPR reads the build-up and loss of mass on a sensor chip optically.)
Assay [1] deals with mature TGFβ1 homodimer (co-crystal) (Homo sapiens (Human)) (UniProt P01137). The assay can be described thus: X-ray co-crystal structure.
The target in a further assay is feline TGFβ1 (feline) (UniProt P01137). The assay can be described thus: SPR.
In a further assay the target is T1, feline TGFβ2 (feline).
T1 sequence: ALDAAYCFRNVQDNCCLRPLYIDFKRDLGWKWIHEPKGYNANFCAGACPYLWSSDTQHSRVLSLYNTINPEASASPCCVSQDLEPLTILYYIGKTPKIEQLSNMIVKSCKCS
The assay can be described thus: SPR.

For the next assay, the target named is T2, feline TGFβ3 (feline).
T2 sequence: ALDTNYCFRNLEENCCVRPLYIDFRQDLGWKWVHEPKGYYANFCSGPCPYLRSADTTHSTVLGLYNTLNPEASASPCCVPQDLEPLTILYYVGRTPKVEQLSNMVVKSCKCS
The assay can be described thus: SPR.

For assay [2], the target named is human TGFβ1 (PeproTech) (human) (UniProt P01137). The assay can be described thus: HDX-MS epitope mapping, TGFβ1 with and without mAb.

These are yes or no findings as the source states them, for the method shown. Some entries that bind do so weakly or less than the wild type.

B1: Can04H09 VH1/VL3 (antibody, V domains shown)
VH: EVQLVQSGAEVKKPGASVKVSCKTSGYTFISSWMNWVRQAPGAGLDWMGQIYPGDGDTNYNGKFKGRVTLTADTSTSTAYMELSSLRAGDIAVYYCARHYDGSTDYWGQGTLVTVSS
VL: EIVMTQSPASLSLSQEEKVTITCRASENIYSNLAWYQQKPGQAPKLLIYAATNLADGVPSRFSGSGSGTDFSFTISSLEPEDVAVYYCQHFWGTPYTFGQGTK
B1: the binding result in the assay with canine TGFβ3 (canine) is given as “binds”.

B2: ZTS-426 Fab (Fab, V domains shown)
VH: EVQLVQSGAEVKKPGASVKVSCKTSGYTFISSWMNWVRQAPGAGLDWMGQIYPGDGDTNYNGKFKGRVTLTADTSTSTAYMELSSLRAGDIAVYYCARHYDGSTDYWGQGTLVTVSS
VL: EIVMTQSPASLSLSQGEKVTITCRASENIYSNLAWYQQRPGQAPKLLIYAATNLADGVPSRFSGSGSGTDFSLTISSLEPEDVAVYYCQHFWGTPYTFGQGTK
For B2, the binding result in assay [1] is reported as “binds”.

B3: Can04H09 VH3/VL3 (antibody, V domains shown)
VH: EVQLVQSAAEVKKPGASVKVSCKTSGYTFTSSWMNWVQQAPGAGLDWMGQIYPGDGDTNYNGKFKGRVTLTADTSTSTAYMELSSLRAEDTAVYYCARHYDGSTDYWGQGTLVTVSS
VL: EIVMTQSPASLSLSQEEKVTITCRASENIYSNLAWYQQKPGQAPKLLIYAATNLADGVPSRFSGSGSGTDFSFTISSLEPEDVAVYYCQHFWGTPYTFGQGTK
With B3, in the assay with canine TGFβ3 (canine), the binding result is “binds”.

B4: Can04H09 VH2/VL4 (antibody, V domains shown)
VH: EVQLVQSAAEVKKPGASVKVSCKTSGYSFTSSWMNWVQQAPGKGLDWMGQIYPGDGDTNYNGKFKGRVTLTADKSTSTAYMELSSLRSEDAAVYYCARHYDGSTDYWGQGTLVTVSS
VL: EIVMTQSPASLSLSQGEKVTITCRASENIYSNLAWYQQRPGQAPKLLIYAATNLADGVPSRFSGSGSGTDFSLTISSLEPEDVAVYYCQHFWGTPYTFGQGTK
Take B4: the binding entry with canine TGFβ3 (canine) is recorded as “binds”.

B5: Can04H09 VH1/VL4 (antibody, V domains shown)
VH: EVQLVQSGAEVKKPGASVKVSCKTSGYTFISSWMNWVRQAPGAGLDWMGQIYPGDGDTNYNGKFKGRVTLTADTSTSTAYMELSSLRAGDIAVYYCARHYDGSTDYWGQGTLVTVSS
VL: EIVMTQSPASLSLSQGEKVTITCRASENIYSNLAWYQQRPGQAPKLLIYAATNLADGVPSRFSGSGSGTDFSLTISSLEPEDVAVYYCQHFWGTPYTFGQGTK
Consider B5, for which the binding entry in the assay with canine TGFβ3 (canine) is “binds”.

B6: Can04H09 VH3/VL4 (antibody, V domains shown)
VH: EVQLVQSAAEVKKPGASVKVSCKTSGYTFTSSWMNWVQQAPGAGLDWMGQIYPGDGDTNYNGKFKGRVTLTADTSTSTAYMELSSLRAEDTAVYYCARHYDGSTDYWGQGTLVTVSS
VL: EIVMTQSPASLSLSQGEKVTITCRASENIYSNLAWYQQRPGQAPKLLIYAATNLADGVPSRFSGSGSGTDFSLTISSLEPEDVAVYYCQHFWGTPYTFGQGTK
For the molecule B6, the binding entry with canine TGFβ3 (canine) is listed as “binds”.

B7: fel04H09-17 (antibody, V domains shown)
VH: QVLLVQSGAEVRRPGASVKIFCKASGYSFTSSWMNWLRQAPAQGFEWMGQIYPGDGDTNYNGKFKGRLTLTADTSTDTAYMELSSLRSADTAVYYCARHYDGSTDYWGHGTIVTVSS
VL: AITMTQSPGSLAGSPGQQVTMNCRASENIYSNLAWYQQKPGQHPKLLIYAATNLADGVPDRFSGSGSGTDFTLTISNLQAEDVASYYCQHFWGTPYTFGGGT
As for B7, the binding entry with feline TGFβ1 (feline), with feline TGFβ2 (feline) and with feline TGFβ3 (feline) was “binds” each time.

B8: fel04H09-23 (antibody, V domains shown)
VH: QVLLVQSGAEVRKPGASVKIFCKASGYSFTSSWMNWLRQAPEQGLEWMGQIYPGDGDTNYNGKFKGRLTLTADTSTNTAYMELSSLRSADTAMYYCARHYDGSTDYWGQGALVTVSS
VL: AITMTQSPGSLAGSPGQQVTMNCRASENIYSNLAWYQQKPGQHPKLLIYAATNLADGVPDRFSGSGSGTDFTLTISNLQAEDVASYYCQHFWGTPYTFGGGT
B8: the binding result with feline TGFβ1 (feline), in the assay with feline TGFβ2 (feline) and with feline TGFβ3 (feline) was “binds” each time.

B9: fel04H09-25 (antibody, V domains shown)
VH: QVLLVQSGAEVRKPGASVKIFCKASGYSFTSSWMNWLRQAPEQGLEWMGQIYPGDGDTNYNGKFKGRLTLTADTSTNTAYMELSSLRSADTAMYYCARHYDGSTDYWGQGALVTVSS
VL: EIQMTQSPSSLSASPGDRVTITCRASENIYSNLAWYQQKPGKVPKLLIYAATNLADGVPSRFSGSGSGTDFTLTISSLEPEDAATYYCQHFWGTPYTFGGGT
Consider B9, for which the binding result with feline TGFβ1 (feline), in the assay with feline TGFβ2 (feline) and in the assay with feline TGFβ3 (feline) was “binds” throughout.

B10: fel04H09-20 (antibody, V domains shown)
VH: QVLLVQSGAEVRKPEASVKIFCKASGYSFTSSWMNWVRQAPAQGFEWMGQIYPGDGDTNYNGKFKGRLTLTADTSTNTAYMELSSLRSTDMAVYYCARHYDGSTDYWGQGALVTVSS
VL: AITMTQSPGSLAGSPGQQVTMNCRASENIYSNLAWYQQKPGQHPKLLIYAATNLADGVPDRFSGSGSGTDFTLTISNLQAEDVASYYCQHFWGTPYTFGGGT
For B10, the binding entry in the assay with feline TGFβ1 (feline), with feline TGFβ2 (feline) and with feline TGFβ3 (feline) was “binds” each time.

B11: fel04H09-18 (antibody, V domains shown)
VH: QVLLVQSGAEVRRPGASVKIFCKASGYSFTSSWMNWLRQAPAQGFEWMGQIYPGDGDTNYNGKFKGRLTLTADTSTDTAYMELSSLRSADTAVYYCARHYDGSTDYWGHGTIVTVSS
VL: DIVMTQTPLSLPVTPGEPASISCRASENIYSNLAWYLQKPGQSPRLLIYAATNLADGVPSRFSGSGSGTDFTLRISSVEADDVGVYYCQHFWGTPYTFGQGT
As to B11, the binding entry with feline TGFβ1 (feline), with feline TGFβ2 (feline) and in the assay with feline TGFβ3 (feline) was “binds” in each case.

B12: fel04H09-19 (antibody, V domains shown)
VH: QVLLVQSGAEVRRPGASVKIFCKASGYSFTSSWMNWLRQAPAQGFEWMGQIYPGDGDTNYNGKFKGRLTLTADTSTDTAYMELSSLRSADTAVYYCARHYDGSTDYWGHGTIVTVSS
VL: EIQMTQSPSSLSASPGDRVTITCRASENIYSNLAWYQQKPGKVPKLLIYAATNLADGVPSRFSGSGSGTDFTLTISSLEPEDAATYYCQHFWGTPYTFGGGT
On to B12, for which the binding entry with feline TGFβ1 (feline), with feline TGFβ2 (feline) and with feline TGFβ3 (feline) was “binds” throughout.

B13: fel04H09-21 (antibody, V domains shown)
VH: QVLLVQSGAEVRKPEASVKIFCKASGYSFTSSWMNWVRQAPAQGFEWMGQIYPGDGDTNYNGKFKGRLTLTADTSTNTAYMELSSLRSTDMAVYYCARHYDGSTDYWGQGALVTVSS
VL: DIVMTQTPLSLPVTPGEPASISCRASENIYSNLAWYLQKPGQSPRLLIYAATNLADGVPSRFSGSGSGTDFTLRISSVEADDVGVYYCQHFWGTPYTFGQGT
In the case of B13, the binding result with feline TGFβ1 (feline), with feline TGFβ2 (feline) and with feline TGFβ3 (feline) was “binds” in each case.

B14: fel04H09-22 (antibody, V domains shown)
VH: QVLLVQSGAEVRKPEASVKIFCKASGYSFTSSWMNWVRQAPAQGFEWMGQIYPGDGDTNYNGKFKGRLTLTADTSTNTAYMELSSLRSTDMAVYYCARHYDGSTDYWGQGALVTVSS
VL: EIQMTQSPSSLSASPGDRVTITCRASENIYSNLAWYQQKPGKVPKLLIYAATNLADGVPSRFSGSGSGTDFTLTISSLEPEDAATYYCQHFWGTPYTFGGGT
For the molecule B14, the binding entry in the assay with feline TGFβ1 (feline), in the assay with feline TGFβ2 (feline) and in the assay with feline TGFβ3 (feline) was “binds” in each case.

B15: fel04H09-24 (antibody, V domains shown)
VH: QVLLVQSGAEVRKPGASVKIFCKASGYSFTSSWMNWLRQAPEQGLEWMGQIYPGDGDTNYNGKFKGRLTLTADTSTNTAYMELSSLRSADTAMYYCARHYDGSTDYWGQGALVTVSS
VL: DIVMTQTPLSLPVTPGEPASISCRASENIYSNLAWYLQKPGQSPRLLIYAATNLADGVPSRFSGSGSGTDFTLRISSVEADDVGVYYCQHFWGTPYTFGQGT
For B15, the binding result with feline TGFβ1 (feline) and with feline TGFβ2 (feline) was “binds” throughout.

B16: mHcLb (antibody, V domains shown)
VH: QVQLEESGPELVRPGASVKLSCKASGYIFITYWMNWVKQRPGQGLEWIGQIFPASGSTNYNEMFEGKATLTVDTSSSTAYMQLSSLTSEDSAVYYCARGDGNYALDAMDYWGQGT
VL: DIVLTQTPASLAVSLGQRATISCRASESVDSYGNSFMHWYQQKSGQPPKLLIYLASNLESGVPARFSGSGSRTDFTLTIDPVEADDAATYYCQQNNEDPLTFGAGTK
For the molecule B16, the binding entry in assay [2] is recorded as “binds”.

B17: canSL501 (caninized VH3/FW2/Q110D+VL2) (antibody, V domains shown)
VH: EVQLVESGGDLVKPGGSLRLSCVASGFTFSSYGMHWVRQAPGKELEWVAVISYDGSIKYYADAVKGRFTISRDNAKNTLYLQMNSLRAEDTAVYYCARTGEYSGYDTDPDYSWGQGTTVTVSS
VL: EIVMTQSPGSLAGSAGESVSINCRASQGIGDDLGWYQQKPGERPKLLIYGTSTLQSGVPARFSSSGSGTDFTLTINNLQAEDVGDYYCLQDSNYPLTFGAGTK
Turning to B17, the binding entry in assay [2] is on record as “binds”.
